Measurements published in PubChem BioAssay AID2685 (National Center for Advancing Translational Sciences (NCATS), 2010).
The other results are listed elsewhere or left out. Further columns of the screen follow, without active or inactive calls. Compounds called inactive in the main read-out are mostly missing here. Words in brackets tell the shape of the fitted curve; partial curves, single points and poor fits give uncertain potencies.

Assay: qHTS Assay for Lipid Storage Modulators in Drosophila S3 Cells;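 on cell number change: cells counted by Cell Tracker Red CMTPX staining in the red channel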
Settings: BODIPY lipid droplet fluorescence, 18-24 h; for cell number change: measured here: cell count max response, cells fed with added oleic acid
Summary of the method: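 Drosophila S3 cells got compounds at several concentrations plus oleic acid (400 uM solution). Laser-scanning cytometry with 488 nm excitation read lipid droplets at 500-530 nm and cells at 575-640 nm. Percent activity was relative to 20 uM Triacsin C.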

[1] = measured here: cell number channel AC50, cells fed with added oleic acid
[2] = measured here: lipid fluorescence (Fed channel) AC50, cells fed with added oleic acid

Compound | cell number change [%] | AC50 [1] | AC50 [2]
CCc1noc(C)c1C(=O)Nc1ccc(S(=O)(=O)N2CCC(C)CC2)cc1 | 32.6 | 13 µM [rising, partial curve, poor fit] | 11.6 µM [rising, partial curve]
COc1cc(C(=O)NCCSc2ccc(Cl)cc2)cc(OC)c1OC | 21.8 | – | 20.6 µM [rising, partial curve, poor fit]
CCOC(=O)c1c(C)[nH]c(C(=O)N/N=C\c2ccccc2O)c1C | -21.8 | – | 18.4 µM [falling, partial curve]
COc1cc(C)ccc1OCCOc1c(C)cc(Cl)cc1Cl | 23.7 | – | 13 µM [rising, partial curve]
CCCCCCCCCCCCN1C/C(=C\C(=O)OCC)c2cc(C(F)(F)F)ccc2S1(=O)=O | 6.89 | – | 3.66 µM [rising, full curve]
O=C1CC(N2CCCN(C3CC(=O)N(c4ccc(F)cc4)C3=O)CC2)C(=O)N1c1ccc(F)cc1 (configuration not stated) | -9.66 | – | 25.9 µM [falling, partial curve, poor fit]
CCN1CCN(c2ccc(S(=O)(=O)N3CCOCC3)cc2NC(=O)CCOc2ccccc2)CC1 | -11.5 | – | 16.4 µM [falling, partial curve]
COc1ccc(CCNC(=O)Cn2c(=O)c3cccn3c3cccnc32)c(OC)c1OC | 2.85 | – | –
O=C(N[C@@H](Cc1ccccc1)C(=O)N1CCN(S(=O)(=O)c2ccc(F)cc2)CC1)c1ccco1 | -11.1 | – | 0.651 µM [rising, single point]
Cc1ccccc1C(=O)N1CCN(c2ccc(NC(=O)c3ccc([N+](=O)[O-])o3)cc2)CC1 | -8.06 | – | 0.116 µM [rising, full curve, poor fit]
O=C(NCCc1ccc(F)cc1)c1cc(-c2ccncc2)nc2ccccc12 | 19 | – | 4.61 µM [rising, full curve, poor fit]
Cc1cc(F)ccc1S(=O)(=O)Nc1ccccc1C(=O)Nc1ccc2[nH]c(=O)[nH]c2c1 | -36.1 | 6.51 µM [falling, partial curve, poor fit] | 29.1 µM [falling, single point]
C#CCn1c(=NC(=O)CN2C(=O)CCC2=O)sc2cccc(OC)c21 | -2.46 | – | 20.6 µM [rising, single point]
CNc1ccccc1C(=O)OC | -22.8 | – | 1.03 µM [falling, full curve]
COc1ccc(-n2ccnc2SCC(=O)NCc2ccco2)c(OC)c1 | 45.2 | 6.51 µM [rising, full curve] | 0.0326 µM [rising, full curve]

Complete entries from above.
COc1cc(C)ccc1OCCOc1c(C)cc(Cl)cc1Cl in the list: cell number change [%]: 23.7; AC50 [2]: 13 µM [rising, partial curve]
O=C1CC(N2CCCN(C3CC(=O)N(c4ccc(F)cc4)C3=O)CC2)C(=O)N1c1ccc(F)cc1 (configuration not stated) in the list: cell number change [%]: -9.66; AC50 [2]: 25.9 µM [falling, partial curve, poor fit]
